Source: article PMC6345853
No constants are given. Whether binding was seen depends on the method and setting. Binding seen in cells or lysates may run through a third protein. A result given as binding can be weak or reduced; the word gives no strength. Sequences can lack the tags named with a protein.

Target: Fg-Usp7-ΔMATH (Drosophila)
Assay: co-IP; S2 cells transfected with tagged constructs, harvested 48 h after transfection, IP and immunoblot; in some panels with co-expressed Hpo, Hpo-KD, Wts or Wts-KD

- binding: binds
B1: Myc-Yki (protein, UniProt Q45VV3 1-395)
chain: MLTTMSASSNTNSLIEKEIDDEDMLSPIKSNNLVVRVNQDTDDNLQALFDSVLNPGDAKRPLQLPLRMRKLPNSFFTPPAPSHSRANSADSTYDAGSQSSINIGNKASIVQQPDGQSPIAAIPQLQIQPSPQHSRLAIHHSRARSSPASLQQNYNVRARSDAAAANNPNANPSSQQQPAGPTFPENSAQEFPSGAPASSAIDLDAMNTCMSQDIPMSMQTVHKKQRSYDVISPIQLNRQLGALPPGWEQAKTNDGQIYYLNHTTKSTQWEDPRIQYRQQQQILMAERIKQNDVLQTTKQTTTSTIANNLGPLPDGWEQAVTESGDLYFINHIDRTTSWNDPRMQSGLSVLDCPDNLVSSLQIEDNLCSNLFNDAQAIVNPPSSHKPDDLEWYKIN
